{"source": "PubChem BioAssay AID1508597 (Cure First, 2020)", "test": "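Knock-downs altering ovarian cancer cell survival with or without PARP inhibitor rucaparib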 (primary screen)", "cells": "human ovarian carcinoma lines grown from tumours: OCI-P5x (papillary serous) and OCI-C5x (clear cell)", "reagent": "siRNA pool against human genes, 1.25 pmol siRNA per well", "timing": "72 h or 96 h, depending on the cell culture", "treatment": "rucaparib 20 µM (about IC30) or vehicle, present until read-out", "detection": "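Luminescent ATP-based viability assay read 72 or 96 h after transfection, depending on culture, given as normalised percent viability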", "reading the numbers": "viability, normalised: higher = more viable cells remaining", "call rule": "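Active when normalised viability falls below 80 percent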", "meaning of the calls": "active = viability under 80%; inactive = viability 80% or more", "note": "The whole screen tested about 2,100 reagents; this is a random part of them. 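Calls flag viability under 80% in either arm, not effects specific to rucaparib; the reference for percent is not stated.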 Entries without a mark were called inactive. No sequences are given here. The record does not give: the 100% reference."}
{"Target gene": "TTN", "rucaparib or vehicle": "Rucaparib", "cell line": "OCI-C5x (clear cell)", "technical replicate": "1", "viability, normalised (%)": "65.7 (active)"}
{"Target gene": "TTN", "rucaparib or vehicle": "Rucaparib", "cell line": "OCI-C5x (clear cell)", "technical replicate": "2", "viability, normalised (%)": "59 (active)"}
{"Target gene": "TTN", "rucaparib or vehicle": "Rucaparib", "cell line": "OCI-C5x (clear cell)", "technical replicate": "3", "viability, normalised (%)": "71.3 (active)"}
{"Target gene": "TTN", "rucaparib or vehicle": "Rucaparib", "cell line": "OCI-P5x (serous)", "technical replicate": "1", "viability, normalised (%)": 92.3}
{"Target gene": "TTN", "rucaparib or vehicle": "Rucaparib", "cell line": "OCI-P5x (serous)", "technical replicate": "2", "viability, normalised (%)": 108}
{"Target gene": "TTN", "rucaparib or vehicle": "Rucaparib", "cell line": "OCI-P5x (serous)", "technical replicate": "3", "viability, normalised (%)": 104}
{"Target gene": "TTN", "rucaparib or vehicle": "Vehicle", "cell line": "OCI-C5x (clear cell)", "technical replicate": "1", "viability, normalised (%)": "59.7 (active)"}
{"Target gene": "TTN", "rucaparib or vehicle": "Vehicle", "cell line": "OCI-C5x (clear cell)", "technical replicate": "2", "viability, normalised (%)": "53.3 (active)"}
{"Target gene": "TTN", "rucaparib or vehicle": "Vehicle", "cell line": "OCI-C5x (clear cell)", "technical replicate": "3", "viability, normalised (%)": "71.1 (active)"}
{"Target gene": "TTN", "rucaparib or vehicle": "Vehicle", "cell line": "OCI-P5x (serous)", "technical replicate": "1", "viability, normalised (%)": 95.8}
{"Target gene": "TTN", "rucaparib or vehicle": "Vehicle", "cell line": "OCI-P5x (serous)", "technical replicate": "2", "viability, normalised (%)": 100}
{"Target gene": "TTN", "rucaparib or vehicle": "Vehicle", "cell line": "OCI-P5x (serous)", "technical replicate": "3", "viability, normalised (%)": 111}
{"Target gene": "RIOX1", "rucaparib or vehicle": "Rucaparib", "cell line": "OCI-C5x (clear cell)", "technical replicate": "1", "viability, normalised (%)": "51.1 (active)"}
{"Target gene": "RIOX1", "rucaparib or vehicle": "Rucaparib", "cell line": "OCI-C5x (clear cell)", "technical replicate": "2", "viability, normalised (%)": "45.1 (active)"}
{"Target gene": "RIOX1", "rucaparib or vehicle": "Rucaparib", "cell line": "OCI-C5x (clear cell)", "technical replicate": "3", "viability, normalised (%)": "34.9 (active)"}
{"Target gene": "RIOX1", "rucaparib or vehicle": "Rucaparib", "cell line": "OCI-P5x (serous)", "technical replicate": "1", "viability, normalised (%)": "59 (active)"}
{"Target gene": "RIOX1", "rucaparib or vehicle": "Rucaparib", "cell line": "OCI-P5x (serous)", "technical replicate": "2", "viability, normalised (%)": "66.1 (active)"}
{"Target gene": "RIOX1", "rucaparib or vehicle": "Rucaparib", "cell line": "OCI-P5x (serous)", "technical replicate": "3", "viability, normalised (%)": "75.7 (active)"}
{"Target gene": "RIOX1", "rucaparib or vehicle": "Vehicle", "cell line": "OCI-C5x (clear cell)", "technical replicate": "1", "viability, normalised (%)": "26.1 (active)"}
{"Target gene": "RIOX1", "rucaparib or vehicle": "Vehicle", "cell line": "OCI-C5x (clear cell)", "technical replicate": "2", "viability, normalised (%)": "37.2 (active)"}
{"Target gene": "RIOX1", "rucaparib or vehicle": "Vehicle", "cell line": "OCI-C5x (clear cell)", "technical replicate": "3", "viability, normalised (%)": "39.4 (active)"}
{"Target gene": "RIOX1", "rucaparib or vehicle": "Vehicle", "cell line": "OCI-P5x (serous)", "technical replicate": "1", "viability, normalised (%)": "69.3 (active)"}
{"Target gene": "RIOX1", "rucaparib or vehicle": "Vehicle", "cell line": "OCI-P5x (serous)", "technical replicate": "2", "viability, normalised (%)": "62.2 (active)"}
{"Target gene": "RIOX1", "rucaparib or vehicle": "Vehicle", "cell line": "OCI-P5x (serous)", "technical replicate": "3", "viability, normalised (%)": 81}
{"Target gene": "SETD1B", "rucaparib or vehicle": "Rucaparib", "cell line": "OCI-C5x (clear cell)", "technical replicate": "1", "viability, normalised (%)": "50.2 (active)"}
{"Target gene": "SETD1B", "rucaparib or vehicle": "Rucaparib", "cell line": "OCI-C5x (clear cell)", "technical replicate": "2", "viability, normalised (%)": "45.1 (active)"}
{"Target gene": "SETD1B", "rucaparib or vehicle": "Rucaparib", "cell line": "OCI-C5x (clear cell)", "technical replicate": "3", "viability, normalised (%)": "33.2 (active)"}
{"Target gene": "SETD1B", "rucaparib or vehicle": "Rucaparib", "cell line": "OCI-P5x (serous)", "technical replicate": "1", "viability, normalised (%)": "48 (active)"}
{"Target gene": "SETD1B", "rucaparib or vehicle": "Rucaparib", "cell line": "OCI-P5x (serous)", "technical replicate": "2", "viability, normalised (%)": "56.4 (active)"}
{"Target gene": "SETD1B", "rucaparib or vehicle": "Rucaparib", "cell line": "OCI-P5x (serous)", "technical replicate": "3", "viability, normalised (%)": "55.1 (active)"}
{"Target gene": "SETD1B", "rucaparib or vehicle": "Vehicle", "cell line": "OCI-C5x (clear cell)", "technical replicate": "1", "viability, normalised (%)": "42.5 (active)"}
{"Target gene": "SETD1B", "rucaparib or vehicle": "Vehicle", "cell line": "OCI-C5x (clear cell)", "technical replicate": "2", "viability, normalised (%)": "30.5 (active)"}
{"Target gene": "SETD1B", "rucaparib or vehicle": "Vehicle", "cell line": "OCI-C5x (clear cell)", "technical replicate": "3", "viability, normalised (%)": "40.4 (active)"}
{"Target gene": "SETD1B", "rucaparib or vehicle": "Vehicle", "cell line": "OCI-P5x (serous)", "technical replicate": "1", "viability, normalised (%)": "56.2 (active)"}
{"Target gene": "SETD1B", "rucaparib or vehicle": "Vehicle", "cell line": "OCI-P5x (serous)", "technical replicate": "2", "viability, normalised (%)": "50.2 (active)"}
{"Target gene": "SETD1B", "rucaparib or vehicle": "Vehicle", "cell line": "OCI-P5x (serous)", "technical replicate": "3", "viability, normalised (%)": 82.8}

2 successive entries from above:
{"Target gene": "TTN", "rucaparib or vehicle": "Rucaparib", "cell line": "OCI-C5x (clear cell)", "technical replicate": "2", "viability, normalised (%)": "59 (active)"}
{"Target gene": "TTN", "rucaparib or vehicle": "Rucaparib", "cell line": "OCI-C5x (clear cell)", "technical replicate": "3", "viability, normalised (%)": "71.3 (active)"}
